Measured values: article PMC13022674
Construct, isoform or probe ends are uncertain for at least one entry. At least one verdict rests on a figure or table, not on a statement of the authors.

By UniProt entry, the sequences of proteins in these tests, tags left out. Where a name states a change or a piece, a line headed by the entry shows the natural chain unless it says otherwise.
UniProt Q13569: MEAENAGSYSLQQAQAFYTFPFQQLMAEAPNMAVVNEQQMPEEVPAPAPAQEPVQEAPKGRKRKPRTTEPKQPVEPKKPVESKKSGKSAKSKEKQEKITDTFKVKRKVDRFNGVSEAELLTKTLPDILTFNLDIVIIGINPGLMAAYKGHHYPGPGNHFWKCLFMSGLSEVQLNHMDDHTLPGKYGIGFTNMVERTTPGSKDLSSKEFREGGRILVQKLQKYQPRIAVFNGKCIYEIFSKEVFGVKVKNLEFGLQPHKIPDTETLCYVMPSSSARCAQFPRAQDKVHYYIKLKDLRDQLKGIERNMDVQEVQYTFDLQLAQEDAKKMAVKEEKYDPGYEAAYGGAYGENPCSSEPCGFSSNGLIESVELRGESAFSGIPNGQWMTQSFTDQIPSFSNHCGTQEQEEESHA

Target: TDG (thymine DNA glycosylase) (human) (UniProt Q13569)
Assay: EMSA
Conditions: range given for all R-loop substrates, EMSA: 5 nM substrate, 100 mM NaCl, 2.5 mM MgCl2, 10 mM Tris-HCl pH 7.5, 5% glycerol, 30 min 30 C, 0.6% agarose 1x TBE 4 C, recombinant protein, residues 1-410, protein details: His tag (pET28a, TALON purified), label: 5'-Cy5 strand 1 (Table S1 dU version)

Row | Sequence | binding result (strand 3 RNA) | further results
1 | TCCTAGTGTCCACCAAATTCCTCAGCGCTCGCTCACCCTCCTCTACGGCCACGACTCTGGGAGTG / CACTCCCAGAGTCGTGGCCGTAGAGTCTTAAAGTATGATACTGAGGAATTTGGTGGACACTAGGA / GAGGGUGAGCGAGCG [TCF21-loop (unmodified)] | binds | 
2 | TCCTAGTGTCCACCAAATTCCTCAGCGCTCGCTCACCCTCCTCTACGGCCACGACTCTGGGAGTG / CACTCCCAGAGTCGTGGCCGTAGAG / GAGGGUGAGCGAGCG / CTGAGGAATTTGGTGGACACTAGGA [TCF21-hybrid (unmodified)] |  | binding result (strand 3 (S25) RNA): binds
3 | TCCTAGTGTCCACCAAATTCCTCAGCGCTCGCTCACCCTCCTCTACGGCCACGACTCTGGGAGTG / CACTCCCAGAGTCGTGGCCGTAGAGTCTTAAAGTATGATATCTTAAAGCACTATACTGAGGAATTTGGTGGACACTAGGA / GAGGGUGAGCGAGCG [TCF21-loopEX (unmodified)] | binds | 
4 | TCCTAGTGTCCACCAAATTCCTCAGCGCTCGCTCACCCTCCTCTACGGCCACGACTCTGGGAGTG / TCTTAAAGTATGATACTGAGGAATTTGGTGGACACTAGGA / CACTCCCAGAGTCGTGGCCGTAGAG / GAGGGUGAGCGAGCG [TCF21-flap (unmodified)] |  | binding result (strand 4 RNA): binds
